The results in this text go back to publication PMC10960409.

The target in assay [1] is T1, OsMYB30C (yeast two-hybrid bait fusion) (rice) (UniProt Q6K1S6).
T1 sequence: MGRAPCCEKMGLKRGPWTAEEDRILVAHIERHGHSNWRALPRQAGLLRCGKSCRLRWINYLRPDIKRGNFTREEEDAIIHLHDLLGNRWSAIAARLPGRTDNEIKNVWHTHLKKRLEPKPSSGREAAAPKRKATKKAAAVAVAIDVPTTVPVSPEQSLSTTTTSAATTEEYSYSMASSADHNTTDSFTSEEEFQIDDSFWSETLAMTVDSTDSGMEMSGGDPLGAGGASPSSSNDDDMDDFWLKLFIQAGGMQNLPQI
Put plainly: two-hybrid; OsPCF5 in prey vector pGAD-T7, MYB in bait vector pGBK-T7, yeast AH109; growth on SD-Leu-Trp-His-Ade with 5 mM 3-AT.

The next assay addresses T2, nYFP-OsMYB30C (rice) (UniProt Q6K1S6).
T2 sequence: T1 sequence
Put plainly: split reporter; BiFC, nYFP-OsMYBs and OsPCF5-cYFP co-infiltrated into N. benthamiana leaves, confocal microscopy after 48 h.

In assay [2] the target is T3, OsMYB30C (luciferase complementation fusion) (rice) (UniProt Q6K1S6).
T3 sequence: T1 sequence
Kind of assay: split reporter; luciferase complementation assay (LCA), NLuc and CLuc fusions co-infiltrated into N. benthamiana leaves, signal read 48 h after infiltration.

Results are given in words; binding and its absence hold for the method and conditions named. For part of these data: In cells and extracts the contact can be indirect. Some binding calls cover weakened binding; strength is not graded here. Sequences can lack the tags named with a protein.

B1: OsPCF5 (yeast two-hybrid prey fusion) (protein, UniProt Q8LT07 1-458)
chain: MGDAGGHSHHHQHGFQPQLLSFGGVGHHHHLHQFTAQPQPPAASHTRGRGGGGEIVPATTTPRSRGGGGGGGGEIVAVQGGHIVRSTGRKDRHSKVCTARGPRDRRVRLSAHTAIQFYDVQDRLGYDRPSKAVDWLIKNAKDAIDKLDVLPAWQPTAGGAGAGNAAAPPSSSTHPDSAENSDDQAQAITVAHTAFDFAGGGSGGTSFLPPSLDSDAIADTIKSFFPMGGTAGGEASSSTTAAQSSAMGFQSYTPDLLSRTGSQSQELRLSLQSLPDPMFHHQQHRHGGGGGGGNGTTQQALFSGAANYSFGGGAMWATEQQAQNQRMLPWNVPDPGGGGGAAYLFNVSQQAAHMQAAAAALGGHQSQFFFQRGPLQSSNQPSERGWPETVEADNQMSHHQGGLSPSVSAAIGFAAPGIGFSGFRLPARIQGDEEHNGGGGGNGDKPPPPSSVSSASHH
In the case of B1, the binding result in assay [1] was “binds”.

B2: OsPCF5-cYFP (protein, UniProt Q8LT07 1-458)
chain: B1 chain
Turning to B2, the binding entry with nYFP-OsMYB30C (rice) is on record as “binds”.

B3: OsPCF5 (luciferase complementation fusion) (protein, UniProt Q8LT07 1-458)
chain: B1 chain
As to B3, the binding entry in assay [2] was “binds”.
